Measurements: article PMC6317261, “Functional dissection of the developmentally restricted BEN domain chromatin boundary factor Insensitive” (Epigenetics & Chromatin, 2019)
For some assays here: A negative result means that nothing was seen under these conditions. For some assays here: Where a protein sequence is shown, tags need not be part of it. For some assays here: The exact form of at least one protein or probe is not confirmed.

Columns and labels:
GST:C domain = biological target: T1, GST:C domain (UniProt Q8SYK5); assay: EMSA; details: EMSA: 25 mM Tris-HCl pH 7.4, 100 mM KCl, 1 mM EDTA, 0.1 mM DTT, 0.1 mM PMSF, 0.03 mg/mL BSA, 10% glycerol, 0.5% Triton X-100, 0.25 mg/mL poly(dI-dC); recombinant protein; residues 209-253; protein details: N-terminal GST; label: 5'-32P
T1 sequence (looked up): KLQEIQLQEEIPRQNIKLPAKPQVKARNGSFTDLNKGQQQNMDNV

GST:Ce-BEN = GST:Ce-BEN (UniProt Q8SYK5); assay: EMSA; details: EMSA: 25 mM Tris-HCl pH 7.4, 100 mM KCl, 1 mM EDTA, 0.1 mM DTT, 0.1 mM PMSF, 0.03 mg/mL BSA, 10% glycerol, 0.5% Triton X-100, 0.25 mg/mL poly(dI-dC); recombinant protein; protein details: N-terminal GST; label: 5'-32P

## CCACCGCAAAATCCAATTGGAAGAGAGCGACT (double strand) [P3]
GST:C domain
  binding result: no binding
GST:Ce-BEN
  binding result: binds
